Data published in US20250235508A1 (THE SCRIPPS RESEARCH INSTITUTE, priority 2015, published 2025).

Test: general procedure: Fmoc solid-phase peptide synthesis
Settings: whole synthesis, scale 0.1 mmol

HsQGTFTSDYSKYLDEXAAKEFIXWLLRA
final HPLC purity (analytical reversed phase C18 HPLC (Phenomenex, C18, 120A, 4.6x50 mm)): >95% | isolated yield: 11% yield
